Record: PubChem BioAssay AID1224830 (NIAID, 2016)
Screen: 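Genes whose knock-down alters the TNF-alpha reporter response to LPS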 (primary screen). Cell system: human THP-1 monocytic leukaemia cells, TNF dual-luciferase reporter clone, PMA-differentiated to macrophage-like cells. Reagent: siRNA pool against human genes, 50 nM. Duration: LPS for 4 h, given about 3 days after siRNA transfection. Conditions: bacterial LPS (TLR4 ligand), 10 ng/ml. Detection: 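Ratio of firefly to renilla light, scaled to the plate median and expressed as a robust z-score per replicate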. Scale: TNF reporter robust z-score: higher = stronger TNF reporter response to LPS. Active means: 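Each well counts as active if its z-score is over 2.8 or under -1.5; controls are left without a call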.
The whole screen tested about 18,000 reagents; below is an unselected part. Over the whole deposit, about 2,900 (16%) got an active call. 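Calls are made per well; low scores hint the gene aids the LPS response, high scores that it dampens it.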 Repeated entries: four replicate wells of each siRNA pool.

no.	gene knocked down	PubChem SID	TNF reporter robust z-score	call
1	TOM1L2	SID315462287	2.51	inactive
2	TOM1L2	SID315462287	3.31	active
3	TOM1L2	SID315462287	2.92	active
4	TOM1L2	SID315462287	2.94	active
5	TSHZ2	SID315461803	0.42	inactive
6	TSHZ2	SID315461803	-0.22	inactive
7	TSHZ2	SID315461803	-0.32	inactive
8	TSHZ2	SID315461803	0.03	inactive
9	INO80C	SID315461660	-0.41	inactive
10	INO80C	SID315461660	0.23	inactive
11	INO80C	SID315461660	-0.75	inactive
12	INO80C	SID315461660	1.56	inactive
13	LGALS9C	SID315465162	0.79	inactive
14	LGALS9C	SID315465162	1.49	inactive
15	LGALS9C	SID315465162	1.83	inactive
16	LGALS9C	SID315465162	-0.31	inactive
17	OMA1	SID315461296	-0.81	inactive
18	OMA1	SID315461296	0.92	inactive
19	OMA1	SID315461296	-1.37	inactive
20	OMA1	SID315461296	-0.28	inactive
21	DNAJB5	SID315455487	2.93	active
22	DNAJB5	SID315455487	0.46	inactive
23	DNAJB5	SID315455487	0.18	inactive
24	DNAJB5	SID315455487	1.8	inactive
25	HIC2	SID315455004	-0.23	inactive
26	HIC2	SID315455004	0.03	inactive
27	HIC2	SID315455004	0.1	inactive
28	HIC2	SID315455004	0.95	inactive
29	MAL	SID315449869	2.82	active
30	MAL	SID315449869	1.51	inactive
31	MAL	SID315449869	0.9	inactive
32	MAL	SID315449869	-0.92	inactive
33	AWAT1	SID315462677	0.2	inactive
34	AWAT1	SID315462677	0.42	inactive
35	AWAT1	SID315462677	0.66	inactive
36	AWAT1	SID315462677	0.08	inactive
37	SP100	SID315451593	-1.36	inactive
38	SP100	SID315451593	-0.27	inactive
39	SP100	SID315451593	0.66	inactive
40	SP100	SID315451593	-0.93	inactive
41	PCED1B	SID315460920	2.31	inactive
42	PCED1B	SID315460920	0.93	inactive
43	PCED1B	SID315460920	0.65	inactive
44	PCED1B	SID315460920	2	inactive
45	GDPGP1	SID315464653	0.65	inactive
46	GDPGP1	SID315464653	0.2	inactive
47	GDPGP1	SID315464653	-0.17	inactive
48	GDPGP1	SID315464653	0.35	inactive
49	AP1B1	SID315447230	-0.46	inactive
50	AP1B1	SID315447230	-0.33	inactive
51	AP1B1	SID315447230	-1.2	inactive
52	AP1B1	SID315447230	0.05	inactive
53	FOSL1	SID315452386	-0.23	inactive
54	FOSL1	SID315452386	0.88	inactive
55	FOSL1	SID315452386	2.61	inactive
56	FOSL1	SID315452386	0.63	inactive
57	OR5AC2	SID315459847	-0.38	inactive
58	OR5AC2	SID315459847	0.62	inactive
59	OR5AC2	SID315459847	0.76	inactive
60	OR5AC2	SID315459847	0.09	inactive
61	SIGLEC7	SID315455889	-1.18	inactive
62	SIGLEC7	SID315455889	0.46	inactive
63	SIGLEC7	SID315455889	0.72	inactive
64	SIGLEC7	SID315455889	1.38	inactive
65	EXOG	SID315453695	-0.72	inactive
66	EXOG	SID315453695	0.94	inactive
67	EXOG	SID315453695	-0.05	inactive
68	EXOG	SID315453695	0.01	inactive
69	SNAI1	SID315451543	-1.32	inactive
70	SNAI1	SID315451543	-0.49	inactive
71	SNAI1	SID315451543	-0.77	inactive
72	SNAI1	SID315451543	-0.11	inactive

The list goes on.
no.	gene knocked down	PubChem SID	TNF reporter robust z-score	call
73	TNFRSF11A	SID315452822	-0.84	inactive
74	TNFRSF11A	SID315452822	-0.96	inactive
75	TNFRSF11A	SID315452822	-0.94	inactive
76	TNFRSF11A	SID315452822	-0.41	inactive
77	YWHAZ	SID315452177	0.3	inactive
78	YWHAZ	SID315452177	0.21	inactive
79	YWHAZ	SID315452177	-0.08	inactive
80	YWHAZ	SID315452177	-0.55	inactive
81	OR6C6	SID315463664	0.3	inactive
82	OR6C6	SID315463664	-0.27	inactive
83	OR6C6	SID315463664	-0.19	inactive
84	OR6C6	SID315463664	0.54	inactive
85	NOVA1	SID315450284	1.31	inactive
86	NOVA1	SID315450284	0.73	inactive
87	NOVA1	SID315450284	0.61	inactive
88	NOVA1	SID315450284	1.22	inactive
89	ABCF1	SID315447130	-0.15	inactive
90	ABCF1	SID315447130	0.61	inactive
91	ABCF1	SID315447130	0.5	inactive
92	ABCF1	SID315447130	0.52	inactive
93	TP63	SID315452697	0.54	inactive
94	TP63	SID315452697	0.94	inactive
95	TP63	SID315452697	-0.13	inactive
96	TP63	SID315452697	0.33	inactive
97	CNOT12	SID315460703	1.01	inactive
98	CNOT12	SID315460703	0.38	inactive
99	CNOT12	SID315460703	0.88	inactive
100	CNOT12	SID315460703	0.96	inactive
101	MED12L	SID315461395	1.03	inactive
102	MED12L	SID315461395	0.33	inactive
103	MED12L	SID315461395	0.8	inactive
104	MED12L	SID315461395	1.86	inactive
105	TRA2B	SID315451392	-0.81	inactive
106	TRA2B	SID315451392	-0.84	inactive
107	TRA2B	SID315451392	-0.52	inactive
108	TRA2B	SID315451392	0.07	inactive
109	ADGRL3	SID315455133	-0.17	inactive
110	ADGRL3	SID315455133	0.64	inactive
111	ADGRL3	SID315455133	0.02	inactive
112	ADGRL3	SID315455133	-0.28	inactive
